Results of single-concentration screens

Chains of the proteins cited; added tags and fusions are not shown.
UniProt P9WPC5, whole entry: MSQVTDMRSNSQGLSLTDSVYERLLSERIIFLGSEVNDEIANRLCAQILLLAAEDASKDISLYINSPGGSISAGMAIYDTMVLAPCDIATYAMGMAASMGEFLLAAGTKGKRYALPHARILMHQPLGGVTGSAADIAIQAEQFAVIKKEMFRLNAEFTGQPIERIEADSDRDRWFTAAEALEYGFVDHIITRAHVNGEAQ
UniProt P9WPC3, whole entry partner: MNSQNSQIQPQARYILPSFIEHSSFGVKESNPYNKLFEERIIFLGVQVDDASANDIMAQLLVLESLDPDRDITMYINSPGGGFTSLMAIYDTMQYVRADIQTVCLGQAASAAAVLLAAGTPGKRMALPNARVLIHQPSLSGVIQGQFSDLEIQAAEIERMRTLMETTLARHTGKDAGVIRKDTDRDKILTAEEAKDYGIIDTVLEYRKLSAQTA

Measurements from “University of Dundee, Small-Polar-MMV Screening Library” (2021), ChEMBL document CHEMBL3988442.

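Protease assay of ClpP1P2, read by the AMC dye that it sets free. Target: ClpP1P2, Mycobacterium tuberculosis (UniProt P9WPC5 and UniProt P9WPC3). Concentration: 50 µM. Higher reads as stronger inhibition, judged from the few compounds that gave an IC50. Most other retested compounds had strongly negative values. Of about 69,000 compounds tested this way, about 10 (0.015%) reached 50% or more in at least one test.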

Values are the deposited “Percent Effect”, in %.
How 0% and 100% were set is not recorded. Most values in the screen are low, and negative values occur.
Compounds were drawn at random from those tested, without regard to their results.

compound | percent effect
NC(=O)CC1CCN(S(=O)(=O)c2cnn(-c3ccccc3)c2)CC1 | 12.16%
CN1CCN(C(=O)CCn2c(C(F)(F)F)cc3cccnc32)CC1 | -5.869%
CCN(Cc1ccccc1)C(=O)CN1CCOC(Cn2cncn2)C1 (stereo unspecified) | -8.186%
O=C1COc2cccc(OCc3ccccn3)c2N1 | -7.895%
CCN1C(=O)CC[C@@H]2[C@H]1CCN2S(=O)(=O)Cc1ccc(C)cc1 | -20.32%
Cc1cc(C)n(CC(=O)N2CCC(Nc3cccnn3)CC2)n1 | -0.1177%
NC(=O)C1CCCN(c2ncnc3c2Cc2ccccc2OC3)C1 (stereo unspecified) | -2.791%
Cc1ccnc(C2CCN(C(=O)c3cnn(C)c3)C2)n1 (stereo unspecified) | -9.286%
N#CCc1ccc(NC(=O)N[C@H](CO)Cc2ccc(O)cc2)cc1 | -12.39%
CCN1C(=O)C(c2ccccc2)CC12CCN(CCO)CC2 (stereo unspecified) | -3.233%
COc1ccccc1C(=O)NCC(c1cccn1C)N1CCOCC1 (stereo unspecified) | 1.163%
COCCN(Cc1ccccn1)C(=O)c1ccc(=O)n(C)c1 | 2.567%
CNC(=O)C1CN(C(=O)c2cccnc2)CCN(S(C)(=O)=O)C1 (stereo unspecified) | -13.05%
CN(C)CC(=O)N1C[C@@H](Oc2ccccn2)[C@H]2OCCC[C@H]21 | 2.605%
Cc1ncccc1OC1(C(=O)NCCc2ccccn2)CCNCC1 | -2.351%
CC(C)c1nc(C(=O)N2CCCC(N)CC2)cs1 (stereo unspecified) | 9.837%
CNC(=O)c1ccc(OC)c(NCc2ncc(-c3cccs3)o2)c1 | -5.312%
CCn1c(NCc2ccc(OC)cc2)nc2c(C)nn(C)c2c1=O | -4.615%
COCCOc1ccc(NC(=O)N(CC2CCOC2)C2CC2)cn1 (stereo unspecified) | -15.6%
Cc1cc(NC(=O)NCc2ccccc2OC(F)F)n(C)n1 | 0.1282%
CCn1cnnc1CNC(=O)NCC(O)c1ccc(OC)cc1 (stereo unspecified) | 5.417%
Cc1cn2c(n1)CCC(NC(=O)c1[nH]nc(C)c1Br)C2 (stereo unspecified) | -25.46%
N#Cc1cccc(CNc2ccc(F)cc2OCCO)c1 | -9.312%
CNS(=O)(=O)Cc1cccc(CNCc2ccsc2)c1 | -5.079%
Fc1ccc(-c2noc(CN3CCC(c4cc[nH]n4)CC3)n2)cc1 | 8.407%
CCc1ncc2c(n1)CN(C(=O)CNC(=O)c1ccccc1)C2 | -18.18%
CCn1cc(NC(=O)CN2C(=O)CC(C)(C)c3ccccc32)cn1 | -7.848%
CN1CCN(Cc2ccccc2CNC(=O)c2ccc(Br)cc2)CC1 | 6.672%
CN(Cc1cccnc1)C(CO)c1cccc(Br)c1 (stereo unspecified) | -5.414%
Cc1ccnc(NC(=O)C(C)Cn2cncn2)c1 (stereo unspecified) | -7.242%
COc1cccc(-c2n[nH]c3c2CN(C(=O)C2=C(C)OCCO2)CC3)c1 | -6.025%
O=C(NCCc1ccccc1)c1cccc(S(=O)(=O)NC2CCOC2)c1 (stereo unspecified) | 4.639%
CCN(CC(=O)NC(C)C)C(=O)c1ccc(-c2ccsc2)nc1C | -33.94%
Cc1nc2c(c(=O)[nH]1)CN(C(=O)CCC1CCCN(C)C1)C2 (stereo unspecified) | -10.2%
Cn1cc(N2CC3(COCCN(Cc4ccsc4)C3)OCC2=O)cn1 (stereo unspecified) | 4.256%
COc1cc(N2C[C@H](C(=O)NCC3CC3)[C@@H]3CCO[C@@H]3C2)ncn1 | -22.55%
CCn1cc(NC(=O)NCC(O)COc2ccccc2)cn1 (stereo unspecified) | -7.755%
Cc1cccnc1C(Cc1ccsc1)NCc1cnc(N(C)C)nc1 (stereo unspecified) | 6.709%
CC(C)Oc1ccccc1CNC(=O)N1CCC(n2cncn2)CC1 | -0.5675%
CCCn1nnnc1CSc1nccn1CC | -3.682%
Cn1cc(CN2CCCn3cnc(COCC4CC4)c3C2)cn1 | 5.119%
CN(C)CCN1CC2(CCC1=O)CCN(C(=O)c1ccn(C)n1)CC2 | 2.68%
c1cncc(-c2cccc(-c3ccn(CCN4CCCCC4)n3)c2)c1 | -6.478%
C[C@@H]1CN(C(=O)c2cc(Cn3ccc4ccccc43)[nH]n2)C[C@H](C)O1 | -18.84%
NC1CCN(C2CCN(c3ccc(-c4ccco4)cc3)CC2)CC1 | 1.278%
CC(C)c1nc(CN2CCCCC2)cs1 | 0.1429%
CCCNC(=O)Nc1cc2c(cc1SC)OCCO2 | 4.895%
COc1ccccc1C(=O)Nc1ccc(OC2CCN(C)CC2)cc1 | -18.98%
Cc1nc2ccccc2nc1CN1CCCC1Cn1cccn1 (stereo unspecified) | 14.64%
CCCc1nc(C)c(C(=O)NC2CCN(CC(N)=O)CC2)s1 | 3.035%
CC(=O)Nc1cc2c(cc1C)OCO2 | 7.616%
CC(C)(C)n1cc(NC(=O)C2CN(Cc3ccccc3)CCO2)cn1 (stereo unspecified) | 3.726%
CN(C(=O)c1ccccn1)c1nc2c(s1)CCc1c-2cnn1C | 15.05%
CCC(C(=O)N(C)Cc1cc(C2CC2)[nH]n1)n1cccn1 (stereo unspecified) | -11.84%
NC(=O)C(CNC(=O)COCC(F)(F)F)Cc1ccc(F)cc1 (stereo unspecified) | 3.755%
O=c1[nH]c(NCc2cccc(-c3ccccc3)c2)nc2c1CCNC2 | 0.2521%
Cn1c(CN2CCCC2)nnc1C1CCCN(C(=O)CN2CCCC2)C1 (stereo unspecified) | -2.808%
Cc1cc(-c2nn3c(C(C)C)nnc3s2)on1 | -10.57%
COc1nccnc1N1C[C@@H]2CC[C@H](C1)N(CC=C(C)C)C2=O | -5.266%
COc1cc(Cl)ccc1CNC(=O)N1CCC(n2cncn2)CC1 | -13.14%
Cc1nc(C)c(C)c(N2CCC(NCCOc3ccccc3)CC2)n1 | -3.868%
CC(C)(C)NC(=O)COc1ccc(CNCc2ccccn2)cc1 | 10.42%
COCCC(=O)N1CCCC(CCC(=O)NCc2cccc(OC)c2)C1 (stereo unspecified) | -8.456%
CC1CS(=O)(=O)CCN1Cc1ccccc1OCC(F)(F)F (stereo unspecified) | -1.646%
CN(C)c1ccc(CNC(=O)NCCc2ccccn2)cn1 | -11.77%

Once more, the final 5:

- Cc1nc(C)c(C)c(N2CCC(NCCOc3ccccc3)CC2)n1 : -3.868%
- CC(C)(C)NC(=O)COc1ccc(CNCc2ccccn2)cc1 : 10.42%
- COCCC(=O)N1CCCC(CCC(=O)NCc2cccc(OC)c2)C1 (stereo unspecified) : -8.456%
- CC1CS(=O)(=O)CCN1Cc1ccccc1OCC(F)(F)F (stereo unspecified) : -1.646%
- CN(C)c1ccc(CNC(=O)NCCc2ccccn2)cn1 : -11.77%